The list shows a part of the results. Residues, ends and D or L forms follow the SMILES beside them. *: point of attachment. Cbz = O=C(OCc1ccccc1)*
Experiments:
Assay in all cases: log2 fold change, soluble protein after heating vs DMSO (PISA); higher = thermal stabilisation; K562 cells, 10 uM, 30 min; active = over 0.2 and 3.5 SD of the protein, either way, in both replicates (recomputed)
[1] = compound: C/C(=N\NC(=O)C1=CC(=CC=C1)S(=O)(=O)N2CCOCC2)/C3=C(C=CC(=C3)Cl)O
Outline: (§1)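 K562 cells at 2×10^6 cells/mL were treated for 30 min with 10 μM compound, and aliquots were heated for 3 min over 48°C-58°C before pooling. Extraction used PBS with 0.5% NP-40 at 4°C, and soluble protein was the supernatant after 21,000xg for 90 min, measured by TMTpro 16plex LC-MS/MS with channel sums equalised. Thermal stability values, relative to control samples and from duplicates, are log2 fold changes.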

Protein sequences, listed by entry. Tags and fused reporters are not part of them. Lines headed by an entry give the natural chain unless they say otherwise; changes in a name come on top.
UniProt Q9H5L6: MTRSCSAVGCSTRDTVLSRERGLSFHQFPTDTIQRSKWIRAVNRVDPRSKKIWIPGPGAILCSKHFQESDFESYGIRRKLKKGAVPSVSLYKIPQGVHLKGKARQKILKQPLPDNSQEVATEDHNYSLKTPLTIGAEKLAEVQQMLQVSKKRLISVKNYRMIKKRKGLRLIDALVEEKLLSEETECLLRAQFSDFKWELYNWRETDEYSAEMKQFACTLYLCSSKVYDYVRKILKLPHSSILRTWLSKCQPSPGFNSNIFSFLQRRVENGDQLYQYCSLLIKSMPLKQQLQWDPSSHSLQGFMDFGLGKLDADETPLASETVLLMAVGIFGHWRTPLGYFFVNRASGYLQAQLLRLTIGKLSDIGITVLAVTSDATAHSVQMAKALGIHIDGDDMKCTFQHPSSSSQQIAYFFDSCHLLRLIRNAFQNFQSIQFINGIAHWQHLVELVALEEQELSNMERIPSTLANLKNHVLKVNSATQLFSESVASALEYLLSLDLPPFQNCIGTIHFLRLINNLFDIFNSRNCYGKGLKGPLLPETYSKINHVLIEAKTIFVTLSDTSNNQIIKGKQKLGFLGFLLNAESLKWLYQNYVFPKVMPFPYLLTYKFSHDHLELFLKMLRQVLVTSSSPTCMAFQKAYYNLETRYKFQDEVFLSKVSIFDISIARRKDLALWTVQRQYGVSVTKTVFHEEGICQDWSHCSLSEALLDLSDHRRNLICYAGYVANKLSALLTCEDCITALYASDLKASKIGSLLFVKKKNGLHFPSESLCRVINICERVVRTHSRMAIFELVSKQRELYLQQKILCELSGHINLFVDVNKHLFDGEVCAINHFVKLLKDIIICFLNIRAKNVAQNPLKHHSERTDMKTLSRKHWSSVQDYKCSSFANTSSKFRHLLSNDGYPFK
UniProt P15884: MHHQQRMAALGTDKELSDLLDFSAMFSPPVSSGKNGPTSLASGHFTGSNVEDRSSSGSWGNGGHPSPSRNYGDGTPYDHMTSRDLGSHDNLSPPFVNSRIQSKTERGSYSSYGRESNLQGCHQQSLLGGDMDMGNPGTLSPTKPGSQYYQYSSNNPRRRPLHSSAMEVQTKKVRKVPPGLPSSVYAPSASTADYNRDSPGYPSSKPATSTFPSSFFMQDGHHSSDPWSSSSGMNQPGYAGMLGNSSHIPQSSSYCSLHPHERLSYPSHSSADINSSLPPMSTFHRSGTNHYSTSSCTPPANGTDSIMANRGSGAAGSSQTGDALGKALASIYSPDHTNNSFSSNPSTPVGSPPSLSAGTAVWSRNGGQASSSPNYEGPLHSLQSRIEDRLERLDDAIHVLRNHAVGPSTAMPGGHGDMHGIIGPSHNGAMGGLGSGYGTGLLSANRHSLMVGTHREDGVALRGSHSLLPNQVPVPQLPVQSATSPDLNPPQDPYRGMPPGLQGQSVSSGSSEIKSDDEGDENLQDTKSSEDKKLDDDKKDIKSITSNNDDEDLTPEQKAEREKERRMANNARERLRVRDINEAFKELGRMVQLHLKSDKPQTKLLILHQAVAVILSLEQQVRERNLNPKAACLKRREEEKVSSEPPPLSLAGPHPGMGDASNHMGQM
UniProt Q15170: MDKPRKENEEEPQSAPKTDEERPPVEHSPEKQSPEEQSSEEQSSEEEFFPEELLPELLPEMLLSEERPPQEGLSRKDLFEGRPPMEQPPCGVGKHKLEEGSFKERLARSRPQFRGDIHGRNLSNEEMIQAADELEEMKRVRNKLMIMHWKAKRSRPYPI
UniProt Q96CG3: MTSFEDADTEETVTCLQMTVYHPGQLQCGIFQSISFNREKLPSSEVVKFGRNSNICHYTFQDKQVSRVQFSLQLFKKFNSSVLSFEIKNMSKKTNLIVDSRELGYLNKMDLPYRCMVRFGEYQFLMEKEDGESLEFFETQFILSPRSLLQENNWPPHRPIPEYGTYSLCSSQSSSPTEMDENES
UniProt B5MCY1: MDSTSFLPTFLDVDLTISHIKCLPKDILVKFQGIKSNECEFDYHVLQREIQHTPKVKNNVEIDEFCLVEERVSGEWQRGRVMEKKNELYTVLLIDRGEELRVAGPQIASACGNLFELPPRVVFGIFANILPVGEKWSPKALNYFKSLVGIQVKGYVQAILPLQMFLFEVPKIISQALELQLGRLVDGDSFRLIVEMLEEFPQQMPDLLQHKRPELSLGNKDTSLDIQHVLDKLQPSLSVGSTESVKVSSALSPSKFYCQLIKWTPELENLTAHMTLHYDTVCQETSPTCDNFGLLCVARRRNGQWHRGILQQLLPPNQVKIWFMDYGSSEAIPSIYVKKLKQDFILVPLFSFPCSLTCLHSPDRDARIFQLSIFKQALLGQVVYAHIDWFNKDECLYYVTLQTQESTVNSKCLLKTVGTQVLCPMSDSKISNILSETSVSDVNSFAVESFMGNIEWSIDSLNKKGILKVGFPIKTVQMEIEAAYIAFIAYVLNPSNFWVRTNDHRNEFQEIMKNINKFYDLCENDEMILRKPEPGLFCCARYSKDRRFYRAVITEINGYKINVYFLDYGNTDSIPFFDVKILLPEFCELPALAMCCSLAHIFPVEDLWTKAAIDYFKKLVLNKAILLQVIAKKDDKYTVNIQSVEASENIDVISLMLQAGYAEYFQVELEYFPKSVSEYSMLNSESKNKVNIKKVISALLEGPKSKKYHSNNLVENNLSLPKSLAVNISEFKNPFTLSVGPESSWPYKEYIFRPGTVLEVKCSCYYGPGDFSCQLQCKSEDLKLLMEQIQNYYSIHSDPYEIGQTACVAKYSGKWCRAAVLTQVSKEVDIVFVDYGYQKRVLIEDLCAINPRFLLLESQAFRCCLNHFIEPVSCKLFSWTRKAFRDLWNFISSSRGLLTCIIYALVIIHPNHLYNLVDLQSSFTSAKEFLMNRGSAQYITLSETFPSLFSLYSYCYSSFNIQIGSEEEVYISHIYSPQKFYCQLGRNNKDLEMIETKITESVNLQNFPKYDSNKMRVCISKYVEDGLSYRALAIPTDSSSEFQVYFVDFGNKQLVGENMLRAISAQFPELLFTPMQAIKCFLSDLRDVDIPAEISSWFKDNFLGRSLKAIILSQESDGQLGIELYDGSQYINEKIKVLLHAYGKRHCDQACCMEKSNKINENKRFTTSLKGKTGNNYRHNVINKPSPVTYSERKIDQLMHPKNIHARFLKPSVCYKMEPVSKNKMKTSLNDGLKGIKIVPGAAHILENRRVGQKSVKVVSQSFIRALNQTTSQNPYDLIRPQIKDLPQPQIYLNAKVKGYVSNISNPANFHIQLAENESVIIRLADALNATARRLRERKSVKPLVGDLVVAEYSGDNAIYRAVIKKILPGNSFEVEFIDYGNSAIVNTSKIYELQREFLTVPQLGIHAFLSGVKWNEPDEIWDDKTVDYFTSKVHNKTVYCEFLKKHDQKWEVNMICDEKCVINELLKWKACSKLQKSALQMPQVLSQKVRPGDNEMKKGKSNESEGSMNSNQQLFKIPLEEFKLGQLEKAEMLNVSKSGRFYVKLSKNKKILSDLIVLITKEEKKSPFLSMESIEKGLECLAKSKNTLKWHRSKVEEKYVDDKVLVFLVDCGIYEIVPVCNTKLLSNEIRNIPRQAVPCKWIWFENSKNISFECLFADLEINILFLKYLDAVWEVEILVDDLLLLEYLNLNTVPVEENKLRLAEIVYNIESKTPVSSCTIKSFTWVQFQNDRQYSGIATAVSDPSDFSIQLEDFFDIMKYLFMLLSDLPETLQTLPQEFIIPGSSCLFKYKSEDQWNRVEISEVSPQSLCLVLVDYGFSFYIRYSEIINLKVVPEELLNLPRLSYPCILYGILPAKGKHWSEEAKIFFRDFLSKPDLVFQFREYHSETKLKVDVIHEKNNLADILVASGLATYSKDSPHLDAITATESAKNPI
UniProt Q96N21: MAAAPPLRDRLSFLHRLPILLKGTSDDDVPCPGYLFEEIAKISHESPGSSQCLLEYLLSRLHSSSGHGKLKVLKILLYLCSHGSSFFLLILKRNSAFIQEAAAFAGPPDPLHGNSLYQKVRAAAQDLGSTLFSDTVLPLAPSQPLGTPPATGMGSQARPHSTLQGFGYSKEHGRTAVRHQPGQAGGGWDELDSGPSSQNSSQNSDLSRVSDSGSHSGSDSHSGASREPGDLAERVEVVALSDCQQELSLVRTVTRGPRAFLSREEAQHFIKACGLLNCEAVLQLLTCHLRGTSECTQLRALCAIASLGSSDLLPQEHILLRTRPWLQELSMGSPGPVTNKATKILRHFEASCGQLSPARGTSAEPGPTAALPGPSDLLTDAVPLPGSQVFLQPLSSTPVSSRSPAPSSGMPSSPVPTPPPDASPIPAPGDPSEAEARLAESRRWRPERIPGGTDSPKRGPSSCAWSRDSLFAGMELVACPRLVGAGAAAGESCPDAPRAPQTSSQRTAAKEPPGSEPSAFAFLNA
UniProt Q9NQ88: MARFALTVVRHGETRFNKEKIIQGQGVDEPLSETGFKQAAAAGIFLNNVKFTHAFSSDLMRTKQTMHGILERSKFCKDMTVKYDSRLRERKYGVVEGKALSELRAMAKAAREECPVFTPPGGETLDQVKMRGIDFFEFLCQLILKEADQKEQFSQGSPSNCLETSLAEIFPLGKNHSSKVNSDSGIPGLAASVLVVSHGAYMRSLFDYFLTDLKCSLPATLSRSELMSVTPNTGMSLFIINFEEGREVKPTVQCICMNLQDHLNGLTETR
UniProt Q96EI5: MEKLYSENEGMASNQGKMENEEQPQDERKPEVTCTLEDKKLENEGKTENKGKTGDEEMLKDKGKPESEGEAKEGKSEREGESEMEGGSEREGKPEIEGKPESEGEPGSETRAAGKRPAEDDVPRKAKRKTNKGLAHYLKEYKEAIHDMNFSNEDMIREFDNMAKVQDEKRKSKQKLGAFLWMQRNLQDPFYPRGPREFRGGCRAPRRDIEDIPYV
UniProt Q01664: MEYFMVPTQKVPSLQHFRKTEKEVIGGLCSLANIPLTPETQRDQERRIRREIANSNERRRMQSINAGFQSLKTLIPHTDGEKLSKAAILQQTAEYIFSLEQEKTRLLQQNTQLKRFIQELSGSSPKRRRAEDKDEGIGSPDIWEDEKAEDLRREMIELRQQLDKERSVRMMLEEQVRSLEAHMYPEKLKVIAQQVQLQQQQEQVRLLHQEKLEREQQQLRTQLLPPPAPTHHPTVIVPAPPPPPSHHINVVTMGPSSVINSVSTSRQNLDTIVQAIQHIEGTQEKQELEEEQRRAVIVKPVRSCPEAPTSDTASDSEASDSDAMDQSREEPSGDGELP
UniProt Q9NXF1: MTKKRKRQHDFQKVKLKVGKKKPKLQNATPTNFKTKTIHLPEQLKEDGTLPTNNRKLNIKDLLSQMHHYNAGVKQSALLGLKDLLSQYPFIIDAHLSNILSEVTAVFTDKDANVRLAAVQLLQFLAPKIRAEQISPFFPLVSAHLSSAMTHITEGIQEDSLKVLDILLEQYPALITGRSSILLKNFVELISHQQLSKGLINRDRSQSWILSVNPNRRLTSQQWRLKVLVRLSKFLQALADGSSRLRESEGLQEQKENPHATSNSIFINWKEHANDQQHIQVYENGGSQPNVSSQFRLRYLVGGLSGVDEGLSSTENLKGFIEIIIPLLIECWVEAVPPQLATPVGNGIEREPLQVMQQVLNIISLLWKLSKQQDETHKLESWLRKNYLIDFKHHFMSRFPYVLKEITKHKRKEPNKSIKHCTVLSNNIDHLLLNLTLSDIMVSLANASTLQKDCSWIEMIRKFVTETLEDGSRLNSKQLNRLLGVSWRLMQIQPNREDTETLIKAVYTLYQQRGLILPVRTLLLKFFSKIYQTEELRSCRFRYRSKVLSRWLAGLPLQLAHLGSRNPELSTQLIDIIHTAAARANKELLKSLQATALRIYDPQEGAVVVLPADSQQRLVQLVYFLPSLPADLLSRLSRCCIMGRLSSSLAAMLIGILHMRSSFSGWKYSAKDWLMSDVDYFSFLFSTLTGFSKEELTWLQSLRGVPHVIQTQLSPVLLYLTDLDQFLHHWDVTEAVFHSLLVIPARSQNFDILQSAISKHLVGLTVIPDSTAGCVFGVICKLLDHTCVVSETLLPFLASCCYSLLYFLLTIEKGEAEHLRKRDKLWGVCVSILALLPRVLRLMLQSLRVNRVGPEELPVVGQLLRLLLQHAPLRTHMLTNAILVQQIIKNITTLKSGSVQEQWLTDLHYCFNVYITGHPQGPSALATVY
UniProt Q9P0N9: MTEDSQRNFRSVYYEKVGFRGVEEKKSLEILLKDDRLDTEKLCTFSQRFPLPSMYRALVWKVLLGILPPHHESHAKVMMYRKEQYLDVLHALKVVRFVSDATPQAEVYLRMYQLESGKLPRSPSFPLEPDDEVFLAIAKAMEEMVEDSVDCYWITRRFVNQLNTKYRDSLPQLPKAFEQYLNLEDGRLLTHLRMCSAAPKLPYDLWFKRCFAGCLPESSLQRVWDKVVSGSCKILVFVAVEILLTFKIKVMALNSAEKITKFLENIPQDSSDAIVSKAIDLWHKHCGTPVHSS

[2] = compound: C1=CC2=C(C=CC(=C2)/C=C\3/C(=O)NC(=NCC4=CC=CS4)S3)N=C1
Outline: as §1

[3] = compound: C1=CC2=NC=CN=C2C=C1/C=C/3\C(=O)NC(=O)S3
Outline: as §1

[4] = compound: C1=CC=C(C=C1)C2=NC(=C(N2)C3=CC=NC=C3)C4=CC(=C(C=C4)Cl)O
Outline: as §1

[5] = compound: C1=CC=C2C(=C1)C3=NNC4=CC=CC(=C43)C2=O
Outline: as §1

IRAK-1-4 Inhibitor I = compound: C1COCCN1CCN2C3=CC=CC=C3N=C2NC(=O)C4=CC(=CC=C4)[N+](=O)[O-] [IRAK-1-4 Inhibitor I]
Outline: as §1

ibrutinib = compound: C=CC(=O)N1CCC[C@@H](n2nc(-c3ccc(Oc4ccccc4)cc3)c3c(N)ncnc32)C1 [ibrutinib]
Outline: as §1

[6] = compound: CC(=O)c1cnc2ccc(-c3cc(Cl)c(O)c(Cl)c3)nc2c1N[C@H]1CC[C@H](CN(C)C)CC1
Outline: as §1

ralimetinib = compound: CC(C)(C)Cn1c(N)nc2ccc(-c3[nH]c(C(C)(C)C)nc3-c3ccc(F)cc3)nc21 [ralimetinib]
Outline: as §1

[7] = compound: CC(C)C[C@@H](C=O)NC(=O)[C@H](CC(C)C)NC(=O)[C@H](CC(C)C)NC(=O)OCc1ccccc1
Outline: as §1

pinometostat = compound: CC(C)N(C[C@H]1O[C@@H](n2cnc3c(N)ncnc32)[C@H](O)[C@@H]1O)[C@H]1C[C@@H](CCc2nc3cc(C(C)(C)C)ccc3[nH]2)C1 [pinometostat]
Outline: as §1

[8] = compound: C1CCN(C1)C(=O)NC2=CC=CC(=C2)NC3=NC=C(C(=N3)NCCC4=CN=CN4)Br
Outline: as §1

[9] = compound: C1CN(CCC1(CC2=CC=C(C=C2)Cl)N)C3=NC=NC4=C3C=CN4
Outline: as §1

[10] = compound: CC1=C(C2=C(C=C1)C(=O)C3=CC=CC=C3N2CCCN)C
Outline: as §1

[11] = compound: CC1=C(C(CC(=O)N1)C2=CC=C(C=C2)C(F)(F)F)C(=O)NC3=C(C=C4C(=C3)C=NN4)F
Outline: as §1

[12] = compound: C1=CC(=C(C=C1Cl)C2=NC3=NC=CN=C3C(=N2)NC4=CC=NC=C4)F
Outline: as §1

[13] = compound: CC(C)(O)CC(=O)NCCn1ccc2ncnc(Nc3ccc(Oc4cccc(C(F)(F)F)c4)c(Cl)c3)c21
Outline: as §1

erlotinib = compound: C#Cc1cccc(Nc2ncnc3cc(OCCOC)c(OCCOC)cc23)c1 [erlotinib]
Outline: as §1

[14] = compound: C1=CC(=CC=C1C2=NC3=C(N2)C=C(C=C3)C(=O)N)OC4=CC=C(C=C4)Cl
Outline: as §1

[15] = compound: CC(C)C1=C2N=C(C=C(N2N=C1)NCC3=CC=CC=C3)NCCCCCCN
Outline: as §1

THAP9 (UniProt Q9H5L6)
log2 fold change [1]: active: -0.733
log2 fold change [2]: inactive: 0.163
log2 fold change [3]: inactive: -0.211
log2 fold change [4]: inactive: 0.123
log2 fold change [5]: inactive: -0.057
log2 fold change (IRAK-1-4 Inhibitor I): inactive: 0.07
log2 fold change (ibrutinib): inactive: 0.002
log2 fold change [6]: inactive: -0.105
log2 fold change (ralimetinib): inactive: 0.178
log2 fold change [7]: inactive: -0.025
log2 fold change (pinometostat): inactive: -0.035

TCF4 isoform 3 (UniProt P15884)
log2 fold change [8]: inactive: -0.147
log2 fold change [9]: inactive: 0.099
log2 fold change [10]: inactive: -0.056

TCEAL1 isoform 2 (UniProt Q15170)
log2 fold change [4]: inactive: -0.162
log2 fold change [8]: inactive: -0.036
log2 fold change [9]: inactive: 0.121
log2 fold change (IRAK-1-4 Inhibitor I): inactive: 0.209
log2 fold change (ralimetinib): inactive: 0.049
log2 fold change [7]: inactive: 0.005
log2 fold change (pinometostat): inactive: -0.268
log2 fold change [10]: inactive: 0.018

TET2 (UniProt Q6N021)
log2 fold change [8]: inactive: -0.149
log2 fold change [9]: inactive: 0.37
log2 fold change (IRAK-1-4 Inhibitor I): inactive: 0.092
log2 fold change (pinometostat): inactive: 0.058
log2 fold change [11]: inactive: 0.1
log2 fold change [10]: inactive: 0.132

TBP (UniProt P20226)
log2 fold change [1]: inactive: -0.016
log2 fold change [12]: inactive: 0.027
log2 fold change [2]: inactive: 0.073
log2 fold change [3]: inactive: 0.041
log2 fold change [4]: inactive: 0.012
log2 fold change [5]: inactive: -0.058
log2 fold change [8]: inactive: 0.018
log2 fold change [9]: inactive: 0.157
log2 fold change (IRAK-1-4 Inhibitor I): inactive: 0.018
log2 fold change (ibrutinib): inactive: -0.029
log2 fold change [6]: inactive: 0.091
log2 fold change (ralimetinib): inactive: -0.016
log2 fold change [13]: inactive: 0.036
log2 fold change [7]: inactive: -0.002
log2 fold change (pinometostat): inactive: -0.019
log2 fold change [10]: active: 0.528

TC2N (UniProt Q8N9U0)
log2 fold change [1]: inactive: 0.038
log2 fold change [2]: inactive: 0.362
log2 fold change [4]: inactive: -0.021
log2 fold change [5]: inactive: 0.054
log2 fold change [8]: inactive: 0.042
log2 fold change [9]: inactive: -0.004
log2 fold change [6]: inactive: -0.486
log2 fold change (ralimetinib): inactive: -0.036
log2 fold change [7]: inactive: 0.028
log2 fold change [10]: inactive: 0.014

TIFA (UniProt Q96CG3)
log2 fold change (erlotinib): inactive: -0.065
log2 fold change [12]: inactive: 0.013
log2 fold change [14]: inactive: -0.006
log2 fold change (IRAK-1-4 Inhibitor I): inactive: 0.119
log2 fold change [13]: inactive: 0.026
log2 fold change [15]: inactive: -0.069
log2 fold change (pinometostat): inactive: -0.059

TDRD15 (UniProt B5MCY1)
log2 fold change (erlotinib): inactive: 0.699
log2 fold change [14]: inactive: -0.113
log2 fold change [4]: inactive: 0.02
log2 fold change [8]: inactive: 0.331
log2 fold change [9]: inactive: 0.013
log2 fold change (ralimetinib): inactive: 0.192
log2 fold change [15]: inactive: -0.029
log2 fold change [7]: inactive: 0.093
log2 fold change [10]: inactive: 0.141

TEPSIN (UniProt Q96N21)
log2 fold change (IRAK-1-4 Inhibitor I): inactive: -0.049
log2 fold change (pinometostat): inactive: 0.044

TIGAR (UniProt Q9NQ88)
log2 fold change [3]: inactive: -0.231
log2 fold change (ibrutinib): inactive: -0.006

TK1 (UniProt K7ERV3)
log2 fold change [1]: inactive: 0.063
log2 fold change [12]: inactive: -0.011
log2 fold change [2]: inactive: 0.028
log2 fold change [3]: inactive: -0.006
log2 fold change [4]: inactive: -0.069
log2 fold change [5]: inactive: 0.037
log2 fold change [8]: inactive: -0.015
log2 fold change [9]: inactive: 0.061
log2 fold change (ibrutinib): inactive: -0.033
log2 fold change [6]: inactive: -0.071
log2 fold change (ralimetinib): inactive: -0.025
log2 fold change [13]: inactive: -0.122
log2 fold change [7]: inactive: 0.078
log2 fold change [10]: inactive: -0.037

TCEAL4 isoform 2 (UniProt Q96EI5)
log2 fold change (erlotinib): inactive: -0.011
log2 fold change [12]: inactive: -0.031
log2 fold change [14]: inactive: 0.012
log2 fold change [4]: inactive: -0.352
log2 fold change [8]: inactive: -0.076
log2 fold change [9]: inactive: -0.084
log2 fold change (IRAK-1-4 Inhibitor I): inactive: 0.117
log2 fold change (ralimetinib): inactive: -0.168
log2 fold change [13]: inactive: -0.052
log2 fold change [15]: inactive: 0.077
log2 fold change [7]: inactive: 0.143
log2 fold change (pinometostat): inactive: -0.064
log2 fold change [10]: inactive: -0.097

TESMIN (UniProt Q9Y4I5)
log2 fold change [11]: inactive: 0.008

TFAP4 (UniProt Q01664)
log2 fold change [3]: inactive: -0.103
log2 fold change [4]: inactive: -0.026
log2 fold change [8]: inactive: 0.053
log2 fold change [9]: inactive: 0.008
log2 fold change (IRAK-1-4 Inhibitor I): inactive: 0.075
log2 fold change (ibrutinib): inactive: 0.026
log2 fold change (ralimetinib): inactive: 0.037
log2 fold change [7]: inactive: 0.102
log2 fold change (pinometostat): inactive: 0.008
log2 fold change [11]: inactive: 0.028
log2 fold change [10]: inactive: -0.064

TCF20 (UniProt Q9UGU0)
log2 fold change [12]: inactive: 0.157
log2 fold change [3]: inactive: 0.086
log2 fold change [4]: inactive: 0.043
log2 fold change (ibrutinib): inactive: -0.043
log2 fold change (ralimetinib): inactive: 0.316
log2 fold change [13]: inactive: 0.245
log2 fold change [7]: inactive: -0.221

TCF3 isoform 2 (UniProt P15923)
log2 fold change [1]: inactive: 0.022
log2 fold change [2]: inactive: 0.117
log2 fold change [4]: inactive: -0.001
log2 fold change [5]: inactive: -0.081
log2 fold change [8]: inactive: -0.102
log2 fold change [9]: inactive: -0.047
log2 fold change (IRAK-1-4 Inhibitor I): inactive: 0.02
log2 fold change [6]: inactive: -0.037
log2 fold change (ralimetinib): inactive: -0.08
log2 fold change [7]: inactive: 0.174
log2 fold change (pinometostat): inactive: -0.11
log2 fold change [10]: inactive: 0.013

TEX10 (UniProt Q9NXF1)
log2 fold change (erlotinib): inactive: -0.037
log2 fold change [14]: inactive: -0.039
log2 fold change [3]: inactive: -0.024
log2 fold change (ibrutinib): inactive: -0.072
log2 fold change [15]: inactive: 0.556

TBC1D7 (UniProt Q9P0N9)
log2 fold change (erlotinib): inactive: -0.181
log2 fold change [12]: inactive: 0.046
log2 fold change [14]: inactive: 0.236
log2 fold change [3]: inactive: -0.256
log2 fold change (ibrutinib): inactive: -0.066
log2 fold change [13]: inactive: -0.193
log2 fold change [15]: inactive: -0.309

TLE3 (UniProt Q04726)
log2 fold change [3]: inactive: -0.084
log2 fold change (ibrutinib): inactive: -0.029
